From paper PMC10229617 (Nature Communications, 2023)
No constants are given. Whether binding was seen depends on the method and setting. Some entries that bind do so weakly or less than the wild type. For some of these results: Tags and fused reporters may be left off the sequences shown. Each block holds one molecule with its values, some of them ahead of it.

By UniProt entry, the sequences of proteins in these tests, tags left out. Where a name states a change or a piece, a line headed by the entry shows the natural chain unless it says otherwise. Chains listed by the source or under a name are the forms on record and can include a tag or linker. Residues count along the entry.
UniProt P25156: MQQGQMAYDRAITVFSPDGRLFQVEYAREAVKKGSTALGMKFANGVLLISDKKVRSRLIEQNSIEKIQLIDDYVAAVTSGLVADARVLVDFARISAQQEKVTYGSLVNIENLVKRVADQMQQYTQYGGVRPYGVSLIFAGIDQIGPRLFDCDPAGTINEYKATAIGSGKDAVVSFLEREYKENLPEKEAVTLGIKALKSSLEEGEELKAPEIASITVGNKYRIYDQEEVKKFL
DJ-1ΔN (DJ-1 lacking the seven residues 4KRALVIL10 of the N-terminal motif) (Q99497, form named): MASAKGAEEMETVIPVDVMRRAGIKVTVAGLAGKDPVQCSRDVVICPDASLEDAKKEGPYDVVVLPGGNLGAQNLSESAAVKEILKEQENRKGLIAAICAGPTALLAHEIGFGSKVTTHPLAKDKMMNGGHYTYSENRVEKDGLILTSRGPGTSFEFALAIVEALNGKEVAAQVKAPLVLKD
UniProt O75828, residues 5-277: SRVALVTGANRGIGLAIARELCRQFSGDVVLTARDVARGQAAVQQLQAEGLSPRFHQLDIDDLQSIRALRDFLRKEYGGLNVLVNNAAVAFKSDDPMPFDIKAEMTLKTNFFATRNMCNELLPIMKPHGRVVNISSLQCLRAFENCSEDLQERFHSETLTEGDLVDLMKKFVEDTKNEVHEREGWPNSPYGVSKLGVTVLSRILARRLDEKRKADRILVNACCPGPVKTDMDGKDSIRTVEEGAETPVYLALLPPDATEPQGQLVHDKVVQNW

What was measured:
[1] = molecular target: T. acidophilum unprocessed half proteasome (α7β7) containing the β-subunit propeptides (Thermoplasma acidophilum) (UniProt P25156+P28061); experiment: native MS; 0.3 µM archaeal 20S assembly mixture with 25 µM CBR3, 150 mM ammonium acetate pH 7.5, ~5 h on ice; each assembly isolated and dissociated by MS/MS (HCD 150 V); both purified
[2] = molecular target: T. acidophilum 20S proteasome α-ring (α7), tag cleaved (Thermoplasma acidophilum) (UniProt P25156); experiment: as above
[3] = molecular target: T. acidophilum fully assembled 20S proteasome (α7β7β7α7) (Thermoplasma acidophilum) (UniProt P25156+P28061); experiment: as above
[4] = molecular target: T. acidophilum 20S proteasome α-subunit, His tagged (α7 ring) (Thermoplasma acidophilum) (UniProt P25156); experiment: pull-down; 50 µM CBR3 with 2 µM His tagged non-assembled α- or β-subunit, 25 mM HEPES pH 7.5, 1 h on ice; loaded on HisTrap FF, eluted with 300 mM imidazole; fractions blotted for CBR3 and His tag; both purified
[5] = molecular target: T1, T. acidophilum 20S proteasome β-subunit, His tagged, non-assembled (Thermoplasma acidophilum) (UniProt P28061); experiment: as above
T1 sequence: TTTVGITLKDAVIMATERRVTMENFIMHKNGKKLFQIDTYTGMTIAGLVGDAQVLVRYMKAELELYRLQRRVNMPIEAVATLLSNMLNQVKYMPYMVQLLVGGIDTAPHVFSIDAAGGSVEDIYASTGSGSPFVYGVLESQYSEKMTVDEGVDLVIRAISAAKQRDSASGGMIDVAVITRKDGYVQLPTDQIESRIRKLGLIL

[6] = molecular target: DJ-1ΔN (DJ-1 lacking the seven residues 4KRALVIL10 of the N-terminal motif) (human) (UniProt Q99497); experiment: native MS; 20 µM protein in 500 mM ammonium acetate pH 7.5; Q-Exactive Plus Orbitrap EMR; both purified
[7] = molecular target: T. acidophilum 20S proteasome α-ring (α7), tag cleaved (Thermoplasma acidophilum) (UniProt P25156); experiment: native MS; MS spectrum of the archaeal α/β assembly mixture (assembled without the 60 °C step), 150 mM ammonium acetate pH 7.5; both purified

- binding [3]: binds
Molecule: CBR3 (carbonyl reductase 3), human, purified recombinant (from UniProt O75828 5-277) (enzyme)
- binding [1]: no binding (tested: 25 µM CBR3, 0.3 µM 20S)
- binding [2]: no binding (tested: 25 µM CBR3, 0.3 µM 20S)
- binding [4]: no binding (tested: 50 µM CBR3, 2 µM subunit)
- binding [5]: no binding (tested: 50 µM CBR3, 2 µM subunit)

- binding [6]: no binding (tested: 20 µM)
Molecule: DJ-1ΔN (DJ-1 lacking the seven residues 4KRALVIL10 of the N-terminal motif) (from UniProt Q99497 1-189)

- binding [7]: binds
B1: T. acidophilum 20S proteasome β-subunit, tag cleaved, as mixed with the α-subunit for assembly (protein, UniProt P28061 9-211)
chain: TTTVGITLKDAVIMATERRVTMENFIMHKNGKKLFQIDTYTGMTIAGLVGDAQVLVRYMKAELELYRLQRRVNMPIEAVATLLSNMLNQVKYMPYMVQLLVGGIDTAPHVFSIDAAGGSVEDIYASTGSGSPFVYGVLESQYSEKMTVDEGVDLVIRAISAAKQRDSASGGMIDVAVITRKDGYVQLPTDQIESRIRKLGLIL
